# Data: patent US4775758A, “Phospholipids” (Takeda Chemical Industries, Ltd., priority 1983, dated 1988)
# Some of these results come from one statement about several compounds together.
# Tested on: blood platelets
# Experiment: Action on blood platelets (platelet aggregation, washed PRP)
# Type: cell-based
# Conditions: 3×10^-5 M; rabbit washed PRP, 37° C.
row,SMILES,platelet aggregation (in words)
1,"CCCCCCCCOCC(COCCCCCCCC)OP(=O)([O-])OCC[N+](C)(C)C [Example 1, 1,3-Dioctyloxypropane-2-yl 2-trimethylammonioethyl phosphate]",no aggregation
2,"CCCCCCCCOCC(COCCCCCCCC)OP(=O)(O)OCCN [Example 2, 1,3-Dioctyloxypropane-2-yl 2-aminoethyl phosphate]",no aggregation
3,"CCCCCCCCOCC(COCCCCCCCC)OP(=O)([O-])OCC[n+]1ccsc1 [Example 3, 1,3-Dioctyloxypropane-2-yl 2-thiazolioethyl phosphate]",no aggregation
4,"CCCCCCCCCCOCC(COCCCCCCCCCC)OP(=O)([O-])OCC[N+](C)(C)C [Example 4, 1,3-Didecyloxypropane-2-yl 2-trimethylammonioethyl phosphate]",no aggregation
5,"CCCCCCCCCCOCC(COCCCCCCCCCC)OP(=O)([O-])OCC[n+]1ccccc1 [Example 5, 1,3-Didecyloxypropane-2-yl 2-pyridinioethyl phosphate]",no aggregation
6,"CCCCCCCCCCOCC(COCCCCCCCCCC)OP(=O)(O)OCCN(C)C [Example 6, 1,3-Didecyloxypropane-2-yl 2-dimethylaminoethyl phosphate]",no aggregation
7,"CCCCCCCCCCCCOCC(COCCCCCCCCCCCC)OP(=O)(O)OCCN(C)C [Example 7, 1,3-Didodecyloxypropane-2-yl 2-dimethylaminoethyl phosphate]",no aggregation
8,"CCCCCCCCCCCCOCC(COCCCCCCCCCCCC)OP(=O)([O-])OCC[N+](C)(C)C [Example 8, 1,3-Didodecyloxypropane-2-yl 2-trimethylammonioethyl phosphate]",no aggregation
9,"CCCCCCCCCOCC(COCCCCCCCCC)OP(=O)([O-])OCC[N+](C)(C)C [Example 9, 1,3-Dinonyloxypropane-2-yl 2-trimethylammonioethyl phosphate]",no aggregation
10,"CCCCCCCOCC(COCCCCCCC)OP(=O)([O-])OCC[N+](C)(C)C [Example 10, 1,3-Diheptyloxypropane-2-yl 2-trimethylammonioethyl phosphate]",no aggregation
